Assay [1] has as its target T1, Protection of telomeres protein 1 (POT1), full-length (1-634) (human) (UniProt Q9NUX5).
T1 sequence: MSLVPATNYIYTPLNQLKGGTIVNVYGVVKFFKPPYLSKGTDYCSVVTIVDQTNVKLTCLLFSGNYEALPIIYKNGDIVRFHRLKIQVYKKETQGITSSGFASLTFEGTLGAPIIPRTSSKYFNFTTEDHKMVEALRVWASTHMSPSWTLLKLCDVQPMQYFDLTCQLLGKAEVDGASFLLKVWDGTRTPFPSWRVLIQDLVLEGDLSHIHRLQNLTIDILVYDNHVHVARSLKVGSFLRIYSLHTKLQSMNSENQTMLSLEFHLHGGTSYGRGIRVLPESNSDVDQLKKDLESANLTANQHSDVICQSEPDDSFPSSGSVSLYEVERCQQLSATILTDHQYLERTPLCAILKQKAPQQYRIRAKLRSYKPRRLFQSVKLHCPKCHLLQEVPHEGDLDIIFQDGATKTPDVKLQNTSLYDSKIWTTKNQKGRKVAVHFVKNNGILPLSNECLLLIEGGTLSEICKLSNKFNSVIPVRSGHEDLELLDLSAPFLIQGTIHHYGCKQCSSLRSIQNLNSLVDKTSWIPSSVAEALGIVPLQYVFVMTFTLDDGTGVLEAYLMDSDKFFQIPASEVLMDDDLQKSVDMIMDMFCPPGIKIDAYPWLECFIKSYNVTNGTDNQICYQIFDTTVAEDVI
As to the kind of experiment: native gel or EMSA; WEMSA: purified POT1-TPP1-TIN2(1-354) (10 pM to 100 nM) with 10 or 20 nM 32P-labelled telo64 DNA, native PAGE, electroblot to PVDF, phosphorimaging, then immunoblot with anti-TIN2, anti-TPP1 and anti-POT1; both purified. (In general: A gel shift assay detects complexes by their altered migration in electrophoresis.)

By UniProt entry, the sequences of proteins in these tests, tags left out.
UniProt Q15554: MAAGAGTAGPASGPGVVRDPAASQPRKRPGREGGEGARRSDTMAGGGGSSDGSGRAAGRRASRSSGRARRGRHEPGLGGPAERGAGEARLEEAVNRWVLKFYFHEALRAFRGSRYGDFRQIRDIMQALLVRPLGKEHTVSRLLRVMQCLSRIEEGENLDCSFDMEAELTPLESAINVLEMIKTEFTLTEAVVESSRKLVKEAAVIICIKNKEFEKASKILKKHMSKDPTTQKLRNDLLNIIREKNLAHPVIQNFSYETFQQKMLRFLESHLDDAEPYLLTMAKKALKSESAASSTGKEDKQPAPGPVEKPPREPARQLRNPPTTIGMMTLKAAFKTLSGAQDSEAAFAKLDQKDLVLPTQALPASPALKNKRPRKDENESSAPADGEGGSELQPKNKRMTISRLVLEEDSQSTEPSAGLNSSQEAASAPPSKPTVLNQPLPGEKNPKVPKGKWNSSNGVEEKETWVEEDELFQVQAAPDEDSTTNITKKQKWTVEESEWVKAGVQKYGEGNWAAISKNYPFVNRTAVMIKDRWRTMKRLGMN

In assay [2] the target is T1, Protection of telomeres protein 1 (POT1), full-length (1-634) (human). Put plainly: co-purification (HisTrap affinity, then SEC); POT1, TPP1 and TIN2(1-354) co-expressed in Sf9; lysate on HisTrap HP through the His-10 tag of POT1, 1 M NaCl wash, imidazole elution, TEV, second HisTrap, Superdex 200 Increase 10/300 GL in 300 mM NaCl, 20 mM Hepes pH 7.5, 10% glycerol, 1 mM …; SDS-PAGE of the peak.

The target of assay [3] is TRF2, full-length (1-542) (UniProt Q15554). Put plainly: co-purification (StrepTrap affinity, then SEC); TRF2 and untagged RAP1 co-expressed in Sf9; lysate on StrepTrap HP through the Twin-Strep-tag of TRF2, 1 M NaCl wash, desthiobiotin elution, TEV, Superdex 200 Increase 10/300 GL in 300 mM NaCl, 20 mM Hepes pH 7.5, 10% glycerol, 0.5 mM TCEP; SDS-PAGE of the peak.

Among the data in article PMC8853558 are binding values, retold here.

These are yes or no findings as the source states them, for the method shown. Some entries that bind do so weakly or less than the wild type. For part of these data: Where a sequence is shown, tags or fusion partners need not be part of it.

B1: TIN2(1-354), C-terminal truncation variant (domain or fragment, UniProt Q9BSI4 1-354)
chain: MATPLVAGPAALRFAAAASWQVVRGRCVEHFPRVLEFLRSLRAVAPGLVRYRHHERLCMGLKAKVVVELILQGRPWAQVLKALNHHFPESGPIVRDPKATKQDLRKILEAQETFYQQVKQLSEAPVDLASKLQELEQEYGEPFLAAMEKLLFEYLCQLEKALPTPQAQQLQDVLSWMQPGVSITSSLAWRQYGVDMGWLLPECSVTDSVNLAEPMEQNPPQQQRLALHNPLPKAKPGTHLPQGPSSRTHPEPLAGRHFNLAPLGRRRVQSQWASTRGGHKERPTVMLFPFRNLGSPTQVISKPESKEEHAIYTADLAMGTRAASTGKSKSPCQTLGGRALKENPVDLPATEQKE
In the case of B1, the binding result in assay [1] and in assay [2] was “binds” each time.

B2: RAP1, full-length (1-399), untagged (protein, UniProt Q9NYB0 1-399)
chain: MAEAMDLGKDPNGPTHSSTLFVRDDGSSMSFYVRPSPAKRRLSTLILHGGGTVCRVQEPGAVLLAQPGEALAEASGDFISTQYILDCVERNERLELEAYRLGPASAADTGSEAKPGALAEGAAEPEPQRHAGRIAFTDADDVAILTYVKENARSPSSVTGNALWKAMEKSSLTQHSWQSLKDRYLKHLRGQEHKYLLGDAPVSPSSQKLKRKAEEDPEAADSGEPQNKRTPDLPEEEYVKEEIQENEEAVKKMLVEATREFEEVVVDESPPDFEIHITMCDDDPPTPEEDSETQPDEEEEEEEEKVSQPEVGAAIKIIRQLMEKFNLDLSTVTQAFLKNSGELEATSAFLASGQRADGYPIWSRQDDIDLQKDDEDTREALVKKFGAQNVARRIEFRKK
With B2, in assay [3], the binding entry was “binds”.
